Source: patent US20140322220A1
No constants are given. Whether binding was seen depends on the method and setting. Binding calls can cover weak binding; strength is not graded here.

Target: human FGFR2 alpha IIIb (human)
Experiment: ELISA check of the anti-mouse IgG (Fc specific) POD conjugate

B1: M048-D01-mIgG2a (antibody)
heavy: EVQLLESGGGLVQPGGSLRLSCAASGFTFSSYAMSWVRQAPGKGLEWVSAISGSGTSTYYADSVKGRFTISRDNSKNTLYLQMNSLRAEDTAVYYCARVRYNWNHGDWFDPWGQGTLVTVSSAKTTAPSVYPLAPVCGDTTGSSVTLGCLVKGYFPEPVTLTWNSGSLSSGVHTFPAVLQSDLYTLSSSVTVTSSTWPSQSITCNVAHPASSTKVDKKIEPRGPTIKPCPPCKCPAPNLLGGPSVFIFPPKIKDVLMISLSPIVTCVVVDVSEDDPDVQISWFVNNVEVHTAQTQTHREDYNSTLRVVSALPIQHQDWMSGKEFKCKVNNKDLPAPIERTISKPKGSVRAPQVYVLPPPEEEMTKKQVTLTCMVTDFMPEDIYVEWTNNGKTELNYKNTEPVLDSDGSYFMYSKLRVEKKNWVERNSYSCSVVHEGLHNHHTTKSFSRTPGK
VL: QSVLTQPPSASGTPGQRVTISCSGSSSNIGNNYVSWYQQLPGTAPKLLIYENYNRPAGVPDRFSGSKSGTSASLAISGLRSEDEADYYCSSWDDSLNYWVFGGGTKLTVL
B1 was tested, and the binding was “binds”.
